Test results from paper PMC5996148.
Values joined by “and” are separate entries in the source; they are usually repeats but may differ in a detail not shown here. Equal entries are not always repeated. Some of the results follow. For some assays here: The source does not settle which construct or isoform was used.

Chains of the proteins cited; added tags and fusions are not shown. Lines headed by an entry give the natural chain unless they say otherwise; changes in a name come on top.
UniProt Q15286: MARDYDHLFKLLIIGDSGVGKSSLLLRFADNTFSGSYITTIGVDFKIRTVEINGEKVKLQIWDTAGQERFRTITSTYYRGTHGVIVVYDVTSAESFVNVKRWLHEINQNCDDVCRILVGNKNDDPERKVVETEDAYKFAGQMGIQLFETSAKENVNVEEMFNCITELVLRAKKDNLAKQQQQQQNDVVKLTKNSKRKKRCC

What was measured:
Experiment in all cases: protein microarray (ProtoArray v5.0), streptavidin-Alexa Fluor 647
Details in all cases: 3'-biotin; 20 mM Tris (pH 7.5), 5 mM MgCl2, 100 mM KCl, 0.1% Tween-20, A/T-rich and random oligonucleotide blockers; temperature not stated; high values mean tight binding
[1] = tested on: Protein OSCP1 (human)
[2] = tested on: Protein PPRC1 (human)
[3] = tested on: Protein phosphatase Slingshot homolog 3 (human)
[4] = tested on: Protein shisa-4 (human)
[5] = tested on: Protein transport protein Sec61 subunit alpha isoform 1 (human)
[6] = tested on: Protein transport protein Sec61 subunit beta (human)
[7] = tested on: Protein tyrosine kinase 2 beta (human)
[8] = tested on: Protein tyrosine phosphatase receptor type C-associated protein (human)
[9] = tested on: Purine nucleoside phosphorylase (human)
[10] = tested on: Putative ATP-dependent Clp protease proteolytic subunit, mitochondrial (human)
[11] = tested on: Putative adenylate kinase 7 (human)
[12] = tested on: Putative elongation factor 1-delta-like protein (human)
[13] = tested on: Putative protein phosphatase inhibitor 2-like protein 3 (human)
[14] = tested on: Pyruvate kinase isozymes R/L (human)
[15] = tested on: QARS (human)
[16] = tested on: RAB1B (human)
[17] = tested on: RAB27A (human)
[18] = target: RAB35 (UniProt Q15286)
[19] = tested on: RAB39 (human)
[20] = tested on: RAB3B (human)

GGTGACAGGGGTATGGGGAGGGG [G4-2 biotinylated (Ct1)]
binding signal [1]: -0.382 z-score | binding signal [2]: -0.393 z-score and -0.41 z-score | binding signal [3]: -0.376 z-score and -0.381 z-score | binding signal [4]: -0.373 z-score | binding signal [5]: -0.359 z-score | binding signal [6]: 6.31 z-score | binding signal [7]: -0.373 z-score | binding signal [8]: -0.399 z-score | binding signal [9]: -0.379 z-score | binding signal [10]: -0.38 z-score | binding signal [11]: -0.401 z-score | binding signal [12]: -0.383 z-score | binding signal [13]: -0.398 z-score | binding signal [14]: -0.392 z-score | binding signal [15]: -0.374 z-score | binding signal [16]: -0.392 z-score | binding signal [17]: -0.4 z-score | binding signal [18]: 5.92 z-score | binding signal [19]: -0.385 z-score | binding signal [20]: -0.38 z-score
